Values of other authors in patent US20210008096A1, “SUPPRESSION OR REDUCTION OF THE PAT[…] VIRULENCE OF A C[…]” (Da Volterra, priority 2015, published 2021).
Some of these results come from one statement about several compounds together.

System: Clostridium difficile
Settings: following treatment of CDAD

| SMILES | recurrence of the disease within 3 months |
| --- | --- |
| CN[C@H](CC(C)C)C(=O)N[C@H]1C(=O)N[C@@H](CC(N)=O)C(=O)N[C@H]2C(=O)N[C@H]3C(=O)N[C@H](C(=O)N[C@H](C(=O)O)c4cc(O)cc(O)c4-c4cc3ccc4O)[C@H](O)c3ccc(c(Cl)c3)Oc3cc2cc(c3O[C@@H]2O[C@H](CO)[C@@H](O)[C@H](O)[C@H]2O[C@H]2C[C@](C)(N)[C@H](O)[C@H](C)O2)Oc2ccc(cc2Cl)[C@H]1O [vancomycin] | 25-30 % of cases |
| Cc1ncc([N+](=O)[O-])n1CCO [metronidazole] | 25-30 % of cases |
